# In the supplement of paper PMC12889115:
# The other results are listed elsewhere or left out. These are raw signals, not scaled to a control.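 First-pass screen: polymyxin B was added at a level that permeabilizes the Salmonella outer membrane while sparing the inner membrane. DMSO wells, with and without polymyxin B, defined maximum growth. Because plates differed from one another, each plate's data were ranked separately and the compounds with the lowest OD600 were carried forward as hits.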
# System: Salmonella enterica serovar Typhimurium SL1344
# Experiment: bacterial growth OD600 after 18 h with compound and polymyxin B; higher = more bacterial growth (less inhibition)
# Conditions: 50 µM, Mueller-Hinton broth
SMILES,bacterial growth OD600 (polymyxin B 1 µg/mL),bacterial growth OD600 (polymyxin B 0.75 µg/mL)
NC(=O)CNC(=O)c1ccc2oc(CCCc3ccccc3)nc2c1,0.958,–
CCCCN(C)C(=O)C1CCCN(C2CCN(c3nc4ccccc4o3)CC2)C1 (stereo unspecified),–,0.767
COCCN1C(=O)CC(CC(=O)N2CC3CCCC2C3)(c2ccccc2OC)C1=O (stereo unspecified),–,0.804
COCCCN1C(=O)CC(CC(=O)N2CCCC(c3ccccc3)C2)(c2ccccc2OC)C1=O (stereo unspecified),–,0.056
CCOC(=O)N1CCC(NC(=O)C2CCC(=O)N(Cc3ccccc3F)C2)CC1 (stereo unspecified),0.961,–
CCOC(=O)C1(Cc2ccc(Cl)cc2)CCN(Cc2[nH]cnc2C)CC1,–,0.922
COC(c1ccccc1)c1nnc(CCC(=O)NCc2cccs2)o1 (stereo unspecified),0.843,–
c1ccc(-c2ccc(-c3n[nH]cc3CN3CCSCC3)cc2)cc1,0.501,–
Cc1cnc(C(=O)N2CCCCC2C(=O)Nc2ccc(-n3nc(C)cc3C)cc2)cn1 (stereo unspecified),0.974,–
CCOC(=O)C1(Cc2ccc(F)cc2F)CCCN(C(=O)c2cnn(CC)c2)C1 (stereo unspecified),0.871,–
O=C(C1CCCC1)N(CC1CCN(C2Cc3ccccc3C2)CC1)CC1CCCO1 (stereo unspecified),0.911,–
CCC1CN(C(=O)c2ccc(NCC3CC3)nc2)CCN1C(C)C (stereo unspecified),–,0.852
C#Cc1ccc(CN2CCC(Oc3cc(OC)ccc3C(=O)NCCOC)CC2)cc1,1.17,–
COc1cccc(OCc2cc(C(=O)N(C)C(C)c3nccs3)n[nH]2)c1 (stereo unspecified),0.926,–
O=C(c1ccc2c(c1)OCO2)C1CCCN(C(=O)NCc2ccccc2)C1 (stereo unspecified),0.8,–
O=C(CC(c1ccccc1)c1ccccc1F)NCCc1ccccn1 (stereo unspecified),0.68,–

SMILES,bacterial growth OD600 (polymyxin B 1 µg/mL),bacterial growth OD600 (polymyxin B 0.75 µg/mL)
O=C(CCc1ccccc1)Nc1ccc(N2CCC(NC3Cc4ccccc4C3)CC2)cc1,–,0.778
c1cnc(-n2cccc2CNCc2cccnc2N2CCCCCCC2)nc1,–,0.769
Cc1n[nH]c(C)c1CCN(C)C(=O)C1CCC(=O)N(CCc2ccccn2)C1 (stereo unspecified),0.993,–
COc1ccc(CC2(CCC(=O)NCCc3ccccc3OC)CCC(=O)N2)c(F)c1 (stereo unspecified),–,0.818
CC(=O)c1ccc(OCC(=O)N2CCOc3ccc(CN4CCN(CCO)CC4)cc3C2)cc1,–,0.861
COc1ccc(-c2nn(-c3ccccc3C)cc2CN(C)CC2COCCO2)cc1F (stereo unspecified),0.863,–
CC(Cc1ccsc1)NC(=O)C1CC(Cc2ccccc2Cl)=NO1 (stereo unspecified),–,0.832
CCN1CCN(C2(C(=O)N3CCCCCC3)Cc3ccccc3C2)CC1,–,0.848
CCOC(=O)C1(Cc2ccc(F)cc2)CCCN(C(=O)CCCN2CCCC2=O)C1 (stereo unspecified),0.8,–
CC(=O)N1CCN(c2ncccc2CNCc2ccccc2C(F)(F)F)CC1,–,0.711
O=C(c1coc(CN2CCN(Cc3ccccc3)CC2)n1)N1CCCCCCC1,–,0.725
Cc1noc(C)c1CCCNC(=O)c1ccc(N2CCSCC2)nc1,–,0.775
COCC(=O)N1CCC(Oc2ccccc2C(=O)NCC2CCCCC2)CC1,1.02,–
COc1ccc(CC2(CCC(=O)NCc3nc4ccccc4c(=O)[nH]3)CCC(=O)N2)c2ccccc12 (stereo unspecified),–,0.848
CCOC(=O)C1(CC2CC2)CCN(Cc2nccn2-c2cccc(C)c2)CC1,0.018,–
